# According to the supplement of paper PMC6411743:
# Sequences of proteins named here, by UniProt entry; tags and fusion partners are left off. A change or cut given only in a name is not applied to a line headed by its entry.
# UniProt P20248, whole entry: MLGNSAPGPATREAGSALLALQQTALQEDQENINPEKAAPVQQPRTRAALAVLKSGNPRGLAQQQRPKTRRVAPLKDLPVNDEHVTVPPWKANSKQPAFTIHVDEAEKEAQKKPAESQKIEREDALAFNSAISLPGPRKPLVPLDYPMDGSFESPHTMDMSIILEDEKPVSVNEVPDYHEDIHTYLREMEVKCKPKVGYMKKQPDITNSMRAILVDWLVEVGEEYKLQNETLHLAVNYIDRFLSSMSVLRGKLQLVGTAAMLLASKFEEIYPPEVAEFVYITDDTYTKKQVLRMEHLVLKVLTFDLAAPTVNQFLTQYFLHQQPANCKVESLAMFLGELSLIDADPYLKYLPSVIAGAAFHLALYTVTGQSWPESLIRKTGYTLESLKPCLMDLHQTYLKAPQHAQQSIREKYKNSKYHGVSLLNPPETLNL
# UniProt P19634, whole entry: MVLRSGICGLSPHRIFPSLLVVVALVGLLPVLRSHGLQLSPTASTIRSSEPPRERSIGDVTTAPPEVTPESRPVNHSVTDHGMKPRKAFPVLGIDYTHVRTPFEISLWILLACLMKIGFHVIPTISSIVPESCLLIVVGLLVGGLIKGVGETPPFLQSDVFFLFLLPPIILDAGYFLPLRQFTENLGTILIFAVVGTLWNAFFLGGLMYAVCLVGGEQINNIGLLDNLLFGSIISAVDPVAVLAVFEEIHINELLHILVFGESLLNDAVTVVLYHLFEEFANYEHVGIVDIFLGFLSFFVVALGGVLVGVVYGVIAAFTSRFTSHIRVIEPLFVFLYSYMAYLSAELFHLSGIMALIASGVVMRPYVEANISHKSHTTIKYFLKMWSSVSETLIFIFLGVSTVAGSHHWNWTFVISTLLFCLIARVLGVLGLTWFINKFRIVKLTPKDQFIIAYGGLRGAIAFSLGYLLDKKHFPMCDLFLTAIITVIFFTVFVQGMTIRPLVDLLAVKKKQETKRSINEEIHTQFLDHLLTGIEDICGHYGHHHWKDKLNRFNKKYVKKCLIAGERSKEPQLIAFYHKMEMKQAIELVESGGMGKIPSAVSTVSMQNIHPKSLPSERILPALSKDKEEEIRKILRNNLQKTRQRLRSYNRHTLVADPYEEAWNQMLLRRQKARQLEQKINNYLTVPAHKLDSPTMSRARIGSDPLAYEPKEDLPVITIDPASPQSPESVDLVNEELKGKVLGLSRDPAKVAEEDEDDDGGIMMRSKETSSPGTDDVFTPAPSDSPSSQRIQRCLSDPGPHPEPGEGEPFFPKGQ
# UniProt P38117: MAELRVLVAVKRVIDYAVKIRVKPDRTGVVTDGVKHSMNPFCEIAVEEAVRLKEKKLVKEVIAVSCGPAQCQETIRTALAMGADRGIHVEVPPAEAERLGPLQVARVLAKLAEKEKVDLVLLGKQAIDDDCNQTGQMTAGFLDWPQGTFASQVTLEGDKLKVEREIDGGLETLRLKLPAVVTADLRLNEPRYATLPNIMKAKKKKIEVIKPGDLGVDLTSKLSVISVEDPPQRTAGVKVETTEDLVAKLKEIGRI
# UniProt P36551: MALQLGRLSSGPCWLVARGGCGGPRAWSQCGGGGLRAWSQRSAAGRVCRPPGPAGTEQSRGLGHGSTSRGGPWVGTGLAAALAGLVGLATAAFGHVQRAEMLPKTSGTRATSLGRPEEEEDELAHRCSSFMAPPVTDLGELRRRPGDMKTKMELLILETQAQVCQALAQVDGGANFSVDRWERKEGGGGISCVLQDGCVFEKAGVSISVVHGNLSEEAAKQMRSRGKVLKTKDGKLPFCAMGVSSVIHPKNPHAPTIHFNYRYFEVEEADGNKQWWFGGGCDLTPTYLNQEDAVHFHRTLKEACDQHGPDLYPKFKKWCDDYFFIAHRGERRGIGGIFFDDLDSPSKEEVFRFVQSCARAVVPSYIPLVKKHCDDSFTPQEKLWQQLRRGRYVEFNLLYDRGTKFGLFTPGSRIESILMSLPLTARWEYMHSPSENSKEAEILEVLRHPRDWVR
# UniProt P24752: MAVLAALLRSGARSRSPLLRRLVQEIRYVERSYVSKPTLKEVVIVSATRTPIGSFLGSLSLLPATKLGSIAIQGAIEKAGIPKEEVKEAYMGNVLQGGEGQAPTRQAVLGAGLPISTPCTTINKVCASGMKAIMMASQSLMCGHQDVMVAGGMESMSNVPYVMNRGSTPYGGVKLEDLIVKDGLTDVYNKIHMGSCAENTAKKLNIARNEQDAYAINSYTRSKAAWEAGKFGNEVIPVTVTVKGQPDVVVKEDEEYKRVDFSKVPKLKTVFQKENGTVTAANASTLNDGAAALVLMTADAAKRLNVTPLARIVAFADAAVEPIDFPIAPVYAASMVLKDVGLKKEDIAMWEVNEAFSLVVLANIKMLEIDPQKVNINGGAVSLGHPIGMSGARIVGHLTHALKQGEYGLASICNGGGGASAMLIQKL
# UniProt P24539: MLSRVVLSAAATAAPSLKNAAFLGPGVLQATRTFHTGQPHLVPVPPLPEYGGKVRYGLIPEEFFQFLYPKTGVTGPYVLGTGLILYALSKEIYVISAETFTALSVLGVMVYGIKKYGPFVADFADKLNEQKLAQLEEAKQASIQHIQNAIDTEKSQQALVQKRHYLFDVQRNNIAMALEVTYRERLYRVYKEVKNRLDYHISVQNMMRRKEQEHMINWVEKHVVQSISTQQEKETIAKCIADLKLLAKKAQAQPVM
# UniProt P30405: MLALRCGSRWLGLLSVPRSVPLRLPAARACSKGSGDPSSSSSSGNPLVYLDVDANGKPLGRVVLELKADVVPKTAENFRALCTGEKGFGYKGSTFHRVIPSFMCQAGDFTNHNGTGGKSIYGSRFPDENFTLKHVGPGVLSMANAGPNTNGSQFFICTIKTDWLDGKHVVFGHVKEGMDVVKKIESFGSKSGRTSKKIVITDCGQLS
# UniProt P18583: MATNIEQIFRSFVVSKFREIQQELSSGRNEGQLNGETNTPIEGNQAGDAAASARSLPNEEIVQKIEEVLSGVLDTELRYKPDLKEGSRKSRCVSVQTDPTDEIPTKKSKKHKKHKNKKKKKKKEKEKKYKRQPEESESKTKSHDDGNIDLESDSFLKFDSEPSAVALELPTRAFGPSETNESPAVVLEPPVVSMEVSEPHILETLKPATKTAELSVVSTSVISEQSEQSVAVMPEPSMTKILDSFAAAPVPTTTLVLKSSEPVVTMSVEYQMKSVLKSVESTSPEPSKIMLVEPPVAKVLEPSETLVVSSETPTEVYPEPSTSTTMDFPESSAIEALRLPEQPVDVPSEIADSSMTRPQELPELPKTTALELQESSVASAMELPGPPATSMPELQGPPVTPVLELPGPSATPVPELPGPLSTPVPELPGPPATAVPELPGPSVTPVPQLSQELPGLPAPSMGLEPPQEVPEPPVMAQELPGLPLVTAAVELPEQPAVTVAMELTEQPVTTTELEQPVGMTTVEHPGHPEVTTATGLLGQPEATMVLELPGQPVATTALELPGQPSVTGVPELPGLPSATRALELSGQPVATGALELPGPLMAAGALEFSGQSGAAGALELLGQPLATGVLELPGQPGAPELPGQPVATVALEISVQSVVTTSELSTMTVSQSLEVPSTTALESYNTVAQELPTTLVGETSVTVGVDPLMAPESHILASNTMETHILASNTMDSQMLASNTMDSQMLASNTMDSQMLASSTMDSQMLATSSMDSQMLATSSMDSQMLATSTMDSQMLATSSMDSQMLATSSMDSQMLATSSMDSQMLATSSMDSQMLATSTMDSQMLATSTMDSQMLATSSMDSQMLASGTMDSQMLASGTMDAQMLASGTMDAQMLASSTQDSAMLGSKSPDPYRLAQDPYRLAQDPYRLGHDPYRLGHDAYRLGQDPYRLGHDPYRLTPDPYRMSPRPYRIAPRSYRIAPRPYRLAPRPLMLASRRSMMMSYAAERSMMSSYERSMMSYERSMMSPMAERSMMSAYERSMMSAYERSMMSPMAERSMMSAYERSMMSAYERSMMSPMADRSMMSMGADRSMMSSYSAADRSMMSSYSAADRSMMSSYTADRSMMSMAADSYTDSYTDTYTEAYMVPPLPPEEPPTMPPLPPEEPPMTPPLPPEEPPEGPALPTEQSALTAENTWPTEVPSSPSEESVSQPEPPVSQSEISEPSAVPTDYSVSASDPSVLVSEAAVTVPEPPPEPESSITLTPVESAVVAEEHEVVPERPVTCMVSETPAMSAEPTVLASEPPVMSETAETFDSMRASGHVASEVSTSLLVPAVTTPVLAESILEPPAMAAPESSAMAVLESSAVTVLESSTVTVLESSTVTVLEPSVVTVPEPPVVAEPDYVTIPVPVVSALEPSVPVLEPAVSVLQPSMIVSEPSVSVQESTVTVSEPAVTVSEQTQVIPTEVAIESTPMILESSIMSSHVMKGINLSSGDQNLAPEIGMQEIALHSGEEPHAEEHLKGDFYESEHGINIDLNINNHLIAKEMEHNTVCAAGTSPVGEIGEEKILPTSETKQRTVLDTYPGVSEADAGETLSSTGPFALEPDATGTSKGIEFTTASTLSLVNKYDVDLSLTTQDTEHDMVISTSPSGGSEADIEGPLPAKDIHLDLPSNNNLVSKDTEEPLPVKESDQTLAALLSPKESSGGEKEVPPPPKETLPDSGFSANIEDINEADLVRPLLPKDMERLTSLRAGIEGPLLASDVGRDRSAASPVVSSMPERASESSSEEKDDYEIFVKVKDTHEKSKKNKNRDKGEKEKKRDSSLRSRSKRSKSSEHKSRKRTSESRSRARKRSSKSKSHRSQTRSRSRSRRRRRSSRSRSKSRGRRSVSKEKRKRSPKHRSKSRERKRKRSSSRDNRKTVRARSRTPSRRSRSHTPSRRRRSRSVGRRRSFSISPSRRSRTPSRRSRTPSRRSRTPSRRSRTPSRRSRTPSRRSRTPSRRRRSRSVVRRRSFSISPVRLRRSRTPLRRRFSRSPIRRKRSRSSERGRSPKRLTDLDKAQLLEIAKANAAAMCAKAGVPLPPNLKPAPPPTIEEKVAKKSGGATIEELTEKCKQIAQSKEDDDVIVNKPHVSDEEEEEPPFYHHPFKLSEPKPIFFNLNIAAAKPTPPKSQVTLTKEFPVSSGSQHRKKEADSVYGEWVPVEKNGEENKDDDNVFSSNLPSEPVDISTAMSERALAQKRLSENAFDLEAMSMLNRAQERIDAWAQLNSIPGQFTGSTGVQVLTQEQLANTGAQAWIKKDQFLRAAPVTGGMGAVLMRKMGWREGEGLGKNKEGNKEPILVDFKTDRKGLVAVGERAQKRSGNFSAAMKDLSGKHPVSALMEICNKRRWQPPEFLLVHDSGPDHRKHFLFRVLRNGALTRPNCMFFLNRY
# UniProt P29374: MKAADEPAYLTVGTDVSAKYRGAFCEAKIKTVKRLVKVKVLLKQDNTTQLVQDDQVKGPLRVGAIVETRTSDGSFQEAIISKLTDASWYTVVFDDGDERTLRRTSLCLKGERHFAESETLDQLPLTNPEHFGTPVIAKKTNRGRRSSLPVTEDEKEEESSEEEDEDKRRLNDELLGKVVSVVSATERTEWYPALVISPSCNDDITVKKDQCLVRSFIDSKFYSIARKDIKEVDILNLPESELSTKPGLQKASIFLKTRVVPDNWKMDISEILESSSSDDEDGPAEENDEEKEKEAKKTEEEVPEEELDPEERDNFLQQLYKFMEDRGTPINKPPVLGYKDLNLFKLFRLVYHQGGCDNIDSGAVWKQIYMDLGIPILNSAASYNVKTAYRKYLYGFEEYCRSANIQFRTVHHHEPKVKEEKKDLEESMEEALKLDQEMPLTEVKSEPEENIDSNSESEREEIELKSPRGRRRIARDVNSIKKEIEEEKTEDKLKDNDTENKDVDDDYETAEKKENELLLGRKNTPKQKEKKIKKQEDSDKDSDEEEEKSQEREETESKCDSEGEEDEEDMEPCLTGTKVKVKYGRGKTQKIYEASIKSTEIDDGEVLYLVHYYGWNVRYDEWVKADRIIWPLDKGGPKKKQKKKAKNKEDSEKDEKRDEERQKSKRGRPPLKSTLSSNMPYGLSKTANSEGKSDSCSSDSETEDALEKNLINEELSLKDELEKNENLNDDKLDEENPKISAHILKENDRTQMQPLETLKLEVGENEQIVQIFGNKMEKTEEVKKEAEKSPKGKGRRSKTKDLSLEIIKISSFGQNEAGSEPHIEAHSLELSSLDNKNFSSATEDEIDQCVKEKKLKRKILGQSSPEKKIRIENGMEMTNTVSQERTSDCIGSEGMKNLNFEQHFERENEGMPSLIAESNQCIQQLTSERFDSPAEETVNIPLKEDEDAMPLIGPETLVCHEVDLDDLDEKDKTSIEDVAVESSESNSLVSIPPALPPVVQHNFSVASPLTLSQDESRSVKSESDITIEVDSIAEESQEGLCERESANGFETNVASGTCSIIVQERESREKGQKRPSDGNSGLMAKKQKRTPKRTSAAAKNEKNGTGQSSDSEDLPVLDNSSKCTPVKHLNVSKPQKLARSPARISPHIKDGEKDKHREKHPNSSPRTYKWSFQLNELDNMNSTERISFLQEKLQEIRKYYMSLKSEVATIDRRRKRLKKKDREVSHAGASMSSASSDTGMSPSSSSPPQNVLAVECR
# ± gives the standard deviation of the averaged measurements. The list shows a part of the results, in another mix than the full data.
# Compound: Nc1ncnc2c1ncn2[C@@H]1O[C@H](COP(=O)(O)OP(=O)(O)NP(=O)(O)O)[C@@H](O)[C@H]1O [adenylyl imidodiphosphate]
# Assay: NP40-soluble protein abundance relative to vehicle (solubility fold change) (ratio); higher = more soluble protein in presence of AMP-PNP
# Outline: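 Jurkat crude lysate (Dounce-homogenised) was treated with eight concentrations from 0.1 to 10 mM for 10 min at room temperature, then 3 min at 37 °C. It was solubilised with 0.8% NP40 and benzonase (60 min, 4 °C) and ultracentrifuged, and the supernatant was TMT-labelled for LC-MS/MS. Intensities were vsn-normalised, and the value is the fold change against the NP40-processed vehicle per replicate, from three independent experiments.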
Target,NP40-soluble protein abundance (concentration: 1mM),NP40-soluble protein abundance (concentration: 2mM),NP40-soluble protein abundance (concentration: 4mM),NP40-soluble protein abundance (concentration: 6mM),NP40-soluble protein abundance (concentration: 8mM),NP40-soluble protein abundance (concentration: 10mM)
PFKL (UniProt P17858),1.01 ± 0.044,0.924 ± 0.15,0.993 ± 0.059,0.967 ± 0.035,1.02 ± 0.054,0.94 ± 0.081
ABCD3 (UniProt P28288),0.958 ± 0.036,0.842 ± 0.14,0.935 ± 0.033,0.92 ± 0.029,0.957 ± 0.071,0.894 ± 0.096
UniProt P39687 and related entries,0.98 ± 0.065,1.03 ± 0.081,0.985 ± 0.11,0.927 ± 0.048,0.896 ± 0.06,0.873 ± 0.034
RPA1 (UniProt P27694),0.979 ± 0.038,0.943 ± 0.053,0.972 ± 0.017,0.974 ± 0.027,0.997 ± 0.012,0.9792 ± 0.0062
UniProt P19525 and related entries,1.07 ± 0.012,0.999 ± 0.059,1.07 ± 0.04,1.09 ± 0.038,1.16 ± 0.04,1.07 ± 0.013
VARS (UniProt P26640),0.967 ± 0.037,0.941 ± 0.07,0.945 ± 0.051,0.916 ± 0.07,0.913 ± 0.066,0.902 ± 0.086
UniProt P20963-3|P20963,0.998 ± 0.073,1.024 ± 0.0045,0.954 ± 0.051,0.917 ± 0.05,0.923 ± 0.015,0.906 ± 0.06
CCNA2 (UniProt P20248),1.03 ± 0.042,1.07 ± 0.057,1.01 ± 0.033,1.01 ± 0.028,0.975 ± 0.014,1.04 ± 0.071
HPCAL1 (UniProt P37235),1.01 ± 0.02,1.02 ± 0.031,1.02 ± 0.029,1 ± 0.052,0.997 ± 0.059,0.975 ± 0.066
UniProt P35240 and related entries,1.01 ± 0.023,1.01 ± 0.049,1.048 ± 0.0075,1 ± 0.018,0.985 ± 0.03,0.992 ± 0.025
UniProt P27635 and related entries,0.97 ± 0.037,0.939 ± 0.022,0.879 ± 0.059,0.865 ± 0.078,0.726 ± 0.18,0.908 ± 0.04
SLC9A1 (UniProt P19634),0.985 ± 0.05,0.994 ± 0.01,0.989 ± 0.046,1 ± 0.038,0.995 ± 0.023,0.988 ± 0.04
MCM3 (UniProt P25205),0.909 ± 0.049,0.883 ± 0.037,0.899 ± 0.075,0.94 ± 0.011,0.943 ± 0.026,0.93 ± 0.079
SRM (UniProt P19623),0.998 ± 0.012,0.948 ± 0.056,0.994 ± 0.0049,0.978 ± 0.032,1.01 ± 0.043,0.977 ± 0.021
UniProt P38117 and related entries,0.981 ± 0.016,0.983 ± 0.021,0.967 ± 0.029,0.992 ± 0.018,0.966 ± 0.034,0.998 ± 0.027
UniProt P30626 and related entries,0.971 ± 0.039,1.01 ± 0.033,0.992 ± 0.025,0.976 ± 0.049,0.968 ± 0.024,0.974 ± 0.063
GSTM2 (UniProt P28161),0.988 ± 0.041,0.959 ± 0.036,0.945 ± 0.046,0.942 ± 0.013,0.953 ± 0.01,0.901 ± 0.012
UniProt P28838 and related entries,0.979 ± 0.012,0.931 ± 0.075,0.954 ± 0.021,0.932 ± 0.027,0.929 ± 0.021,0.92 ± 0.031
GTF2E1 (UniProt P29083),1.04 ± 0.021,1.1 ± 0.04,1.06 ± 0.016,1.05 ± 0.012,1.04 ± 0.035,1.07 ± 0.048
COIL (UniProt P38432),0.989 ± 0.02,1.06 ± 0.013,1.07 ± 0.055,1.09 ± 0.013,1.15 ± 0.047,1.17 ± 0.065

Target,NP40-soluble protein abundance (concentration: 1mM),NP40-soluble protein abundance (concentration: 2mM),NP40-soluble protein abundance (concentration: 4mM),NP40-soluble protein abundance (concentration: 6mM),NP40-soluble protein abundance (concentration: 8mM),NP40-soluble protein abundance (concentration: 10mM)
MCM5 (UniProt P33992),0.934 ± 0.014,0.884 ± 0.099,0.92 ± 0.0097,0.913 ± 0.024,0.934 ± 0.036,0.894 ± 0.061
YY1 (UniProt P25490),1.033 ± 0.0055,1.07 ± 0.043,1.03 ± 0.041,1.07 ± 0.028,1.09 ± 0.06,1.08 ± 0.078
CA8 (UniProt P35219),0.998 ± 0.026,0.967 ± 0.06,0.973 ± 0.028,0.982 ± 0.035,1.03 ± 0.04,0.966 ± 0.033
CPOX (UniProt P36551),0.999 ± 0.034,0.939 ± 0.12,1 ± 0.011,0.973 ± 0.046,1.01 ± 0.037,0.964 ± 0.032
PEBP1 (UniProt P30086),1.008 ± 0.0089,1.01 ± 0.037,1.01 ± 0.016,1.05 ± 0.039,1.05 ± 0.03,1.05 ± 0.043
ACAT1 (UniProt P24752),0.977 ± 0.039,0.97 ± 0.027,0.935 ± 0.039,0.982 ± 0.019,0.958 ± 0.033,0.973 ± 0.023
SDHA (UniProt P31040),0.9896 ± 0.0076,0.955 ± 0.014,0.967 ± 0.013,0.946 ± 0.0098,0.959 ± 0.027,0.922 ± 0.016
PRDX2 (UniProt P32119),0.966 ± 0.022,0.918 ± 0.027,0.91 ± 0.028,0.966 ± 0.032,0.947 ± 0.022,0.915 ± 0.031
UniProt P22033,1.01 ± 0.0057,0.965 ± 0.07,0.979 ± 0.013,0.964 ± 0.024,0.941 ± 0.01,0.941 ± 0.024
RPL12 (UniProt P30050),0.987 ± 0.047,0.978 ± 0.025,0.885 ± 0.046,0.902 ± 0.062,0.811 ± 0.048,0.873 ± 0.12
GGT1 (UniProt P19440),0.988 ± 0.012,0.995 ± 0.03,1.01 ± 0.036,0.976 ± 0.013,0.958 ± 0.028,0.981 ± 0.026
NMT1 (UniProt P30419),1.087 ± 0.0079,1.1 ± 0.015,1.13 ± 0.048,1.16 ± 0.038,1.2 ± 0.019,1.2 ± 0.067
UniProt P25325 and related entries,1.05 ± 0.04,1.03 ± 0.067,0.948 ± 0.042,0.975 ± 0.049,0.914 ± 0.015,0.97 ± 0.026
VDAC1 (UniProt P21796),0.99 ± 0.034,0.955 ± 0.017,0.966 ± 0.032,1.03 ± 0.063,1.03 ± 0.042,1.03 ± 0.045
EEF1G (UniProt P26641),0.967 ± 0.038,0.917 ± 0.078,0.894 ± 0.028,0.91 ± 0.078,0.888 ± 0.051,0.88 ± 0.08
IL2RG (UniProt P31785),1.01 ± 0.027,1.02 ± 0.063,1.01 ± 0.031,1.01 ± 0.03,0.998 ± 0.015,1.01 ± 0.018
ARL3 (UniProt P36405),0.9899 ± 0.0033,0.945 ± 0.031,0.995 ± 0.048,0.988 ± 0.052,1.03 ± 0.041,0.99 ± 0.042
RAB3A (UniProt P20336),1.03 ± 0.041,1.02 ± 0.014,1.04 ± 0.036,1 ± 0.012,1 ± 0.016,1.02 ± 0.02
UniProt P37275-2|P37275-5|P37275,1.03 ± 0.041,1.06 ± 0.067,1.037 ± 0.0025,1 ± 0.024,0.985 ± 0.025,1.04 ± 0.037
UniProt P17544-2|P17544-4|P17544-6,1.03 ± 0.067,1.04 ± 0.073,1 ± 0.051,1.01 ± 0.081,1.01 ± 0.039,1.01 ± 0.057

Target,NP40-soluble protein abundance (concentration: 1mM),NP40-soluble protein abundance (concentration: 2mM),NP40-soluble protein abundance (concentration: 4mM),NP40-soluble protein abundance (concentration: 6mM),NP40-soluble protein abundance (concentration: 8mM),NP40-soluble protein abundance (concentration: 10mM)
RAB3B (UniProt P20337),0.996 ± 0.021,1.02 ± 0.05,1 ± 0.019,0.976 ± 0.03,0.992 ± 0.052,0.958 ± 0.02
ERP29 (UniProt P30040),0.989 ± 0.013,1.01 ± 0.03,0.987 ± 0.027,1 ± 0.059,1.02 ± 0.058,0.981 ± 0.077
UniProt P35251 and related entries,1.07 ± 0.023,1.13 ± 0.051,1.13 ± 0.05,1.21 ± 0.052,1.18 ± 0.062,1.26 ± 0.038
UniProt P36507,1.04 ± 0.037,1.05 ± 0.08,1.01 ± 0.066,1.05 ± 0.029,1.02 ± 0.061,1.04 ± 0.077
GTF2E2 (UniProt P29084),1.04 ± 0.026,1.14 ± 0.11,1.07 ± 0.061,1.15 ± 0.096,1.1 ± 0.13,1.21 ± 0.16
UniProt P24539 and related entries,0.929 ± 0.076,0.962 ± 0.056,0.886 ± 0.1,0.911 ± 0.059,0.944 ± 0.05,0.808 ± 0.085
GOT1 (UniProt P17174),0.988 ± 0.018,0.954 ± 0.031,0.9656 ± 0.0063,0.97 ± 0.024,0.966 ± 0.019,0.949 ± 0.022
PPIF (UniProt P30405),1.01 ± 0.032,1.03 ± 0.047,0.993 ± 0.046,1.03 ± 0.019,0.989 ± 0.03,1.01 ± 0.049
UniProt P25685 and related entries,1.09 ± 0.044,1.06 ± 0.033,1.07 ± 0.057,1.03 ± 0.015,1.05 ± 0.035,1.06 ± 0.067
UniProt P37837 and related entries,1.028 ± 0.0097,1.04 ± 0.077,0.966 ± 0.054,1.01 ± 0.028,0.988 ± 0.031,1.01 ± 0.056
LMNB1 (UniProt P20700),0.963 ± 0.017,0.929 ± 0.041,0.828 ± 0.032,0.776 ± 0.015,0.709 ± 0.03,0.718 ± 0.037
UniProt P18583 and related entries,1.03 ± 0.062,1.1 ± 0.0088,1.07 ± 0.087,1.05 ± 0.091,1.01 ± 0.06,1.14 ± 0.11
ABCC1 (UniProt P33527),0.985 ± 0.011,0.968 ± 0.023,0.983 ± 0.011,0.976 ± 0.013,0.965 ± 0.027,0.984 ± 0.031
ARID4A (UniProt P29374),1.06 ± 0.053,1.07 ± 0.039,1.07 ± 0.036,1.03 ± 0.031,1.01 ± 0.032,1.07 ± 0.033
UniProt P20073 and related entries,0.966 ± 0.053,0.996 ± 0.093,0.989 ± 0.069,0.998 ± 0.086,1.04 ± 0.052,0.995 ± 0.096
UniProt P25788 and related entries,0.885 ± 0.036,0.857 ± 0.032,0.852 ± 0.074,0.925 ± 0.045,0.904 ± 0.071,0.894 ± 0.11
UniProt P36954,1.01 ± 0.022,1.05 ± 0.039,0.998 ± 0.026,0.958 ± 0.051,0.965 ± 0.066,0.95 ± 0.051
IGHMBP2 (UniProt P38935),1.17 ± 0.014,1.16 ± 0.05,1.22 ± 0.083,1.26 ± 0.086,1.33 ± 0.06,1.42 ± 0.12
ABCD1 (UniProt P33897),0.999 ± 0.022,0.967 ± 0.041,1.014 ± 0.006,0.9882 ± 0.0083,1.01 ± 0.025,0.991 ± 0.024
CD53 (UniProt P19397),0.999 ± 0.051,1.02 ± 0.1,0.964 ± 0.093,1.06 ± 0.12,1.06 ± 0.12,1.03 ± 0.1

# Some values from the results shown.
# Entry of GOT1 (UniProt P17174) under NP40-soluble protein abundance (concentration: 1mM): 0.988 ± 0.018
# Entry of UniProt P20073 and related entries under NP40-soluble protein abundance (concentration: 1mM): 0.966 ± 0.053
